The list shows a part of the results. Most entries show no effect beyond the scatter of the controls.
Compound: Cc1nc(Nc2ncc(C(=O)Nc3c(C)cccc3Cl)s2)cc(N2CCN(CCO)CC2)n1 [dasatinib]
Experiment: log2 fold change of tryptic peptide abundance, ligand vs vehicle (limited proteolysis) (log2 ratio); higher = more trypsin-susceptible (destabilized)
Conditions: ligand concentration: 5 uM; sample: K562 cleared lysate

Amino acid sequences for entries named in this document (tags omitted). A change or cut given only in a name is not applied to a line headed by its entry.
UniProt P31483: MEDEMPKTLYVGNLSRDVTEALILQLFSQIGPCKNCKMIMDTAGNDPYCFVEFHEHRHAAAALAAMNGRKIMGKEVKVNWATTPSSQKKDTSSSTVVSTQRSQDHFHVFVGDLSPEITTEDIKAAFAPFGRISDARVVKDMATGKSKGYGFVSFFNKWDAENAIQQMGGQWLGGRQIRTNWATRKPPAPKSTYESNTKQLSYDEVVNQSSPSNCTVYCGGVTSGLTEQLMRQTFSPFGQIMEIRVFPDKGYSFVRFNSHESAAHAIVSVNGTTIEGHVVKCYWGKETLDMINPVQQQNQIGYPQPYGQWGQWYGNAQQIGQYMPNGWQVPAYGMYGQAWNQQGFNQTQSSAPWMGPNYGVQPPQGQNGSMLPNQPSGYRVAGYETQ
UniProt P35613: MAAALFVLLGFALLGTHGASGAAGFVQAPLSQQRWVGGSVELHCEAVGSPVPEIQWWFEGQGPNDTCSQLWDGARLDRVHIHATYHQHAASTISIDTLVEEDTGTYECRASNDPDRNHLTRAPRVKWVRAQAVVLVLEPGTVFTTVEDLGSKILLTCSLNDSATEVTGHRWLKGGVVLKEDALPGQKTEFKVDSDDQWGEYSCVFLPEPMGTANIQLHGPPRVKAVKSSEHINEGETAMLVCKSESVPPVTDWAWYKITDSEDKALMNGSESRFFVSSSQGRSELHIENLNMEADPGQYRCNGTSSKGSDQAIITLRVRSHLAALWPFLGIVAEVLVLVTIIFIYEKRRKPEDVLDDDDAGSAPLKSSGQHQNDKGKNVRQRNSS
UniProt P41223: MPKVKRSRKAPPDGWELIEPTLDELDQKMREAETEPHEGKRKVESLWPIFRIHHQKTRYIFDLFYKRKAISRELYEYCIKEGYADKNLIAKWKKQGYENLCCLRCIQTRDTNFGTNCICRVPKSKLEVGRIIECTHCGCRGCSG
UniProt P42226: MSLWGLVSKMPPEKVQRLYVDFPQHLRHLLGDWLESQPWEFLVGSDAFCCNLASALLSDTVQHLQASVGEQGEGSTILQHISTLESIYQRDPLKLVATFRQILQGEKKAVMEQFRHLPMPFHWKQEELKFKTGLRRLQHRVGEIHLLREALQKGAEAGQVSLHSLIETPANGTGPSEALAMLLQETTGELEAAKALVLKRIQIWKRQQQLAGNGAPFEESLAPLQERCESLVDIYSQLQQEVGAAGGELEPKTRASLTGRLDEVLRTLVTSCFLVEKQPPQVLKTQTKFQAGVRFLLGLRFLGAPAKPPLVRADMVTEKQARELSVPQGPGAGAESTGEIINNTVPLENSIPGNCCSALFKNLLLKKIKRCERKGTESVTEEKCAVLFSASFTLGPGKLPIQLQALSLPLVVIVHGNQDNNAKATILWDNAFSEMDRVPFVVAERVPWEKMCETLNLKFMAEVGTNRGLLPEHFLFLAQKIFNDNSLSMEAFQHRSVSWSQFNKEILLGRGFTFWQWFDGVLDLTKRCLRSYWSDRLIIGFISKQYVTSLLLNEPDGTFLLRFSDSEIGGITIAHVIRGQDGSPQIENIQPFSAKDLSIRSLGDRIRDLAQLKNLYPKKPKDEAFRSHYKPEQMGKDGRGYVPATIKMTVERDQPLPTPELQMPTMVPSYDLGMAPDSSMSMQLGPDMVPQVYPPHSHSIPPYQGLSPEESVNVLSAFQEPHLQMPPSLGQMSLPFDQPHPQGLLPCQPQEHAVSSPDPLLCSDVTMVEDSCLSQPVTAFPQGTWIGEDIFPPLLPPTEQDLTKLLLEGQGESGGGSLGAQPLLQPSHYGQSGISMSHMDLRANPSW
UniProt P35638, whole entry: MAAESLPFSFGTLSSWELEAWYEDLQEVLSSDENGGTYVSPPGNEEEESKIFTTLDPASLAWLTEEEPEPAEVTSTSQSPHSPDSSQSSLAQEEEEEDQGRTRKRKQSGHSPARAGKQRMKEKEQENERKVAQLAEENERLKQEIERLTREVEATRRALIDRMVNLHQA
UniProt P38117: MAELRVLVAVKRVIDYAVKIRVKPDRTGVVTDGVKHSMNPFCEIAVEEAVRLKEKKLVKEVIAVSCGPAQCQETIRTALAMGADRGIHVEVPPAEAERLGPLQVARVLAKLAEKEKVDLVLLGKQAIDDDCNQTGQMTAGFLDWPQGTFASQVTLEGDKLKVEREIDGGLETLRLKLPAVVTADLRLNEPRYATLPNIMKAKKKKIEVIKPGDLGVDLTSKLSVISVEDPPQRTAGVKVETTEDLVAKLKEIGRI
UniProt P30279, whole entry: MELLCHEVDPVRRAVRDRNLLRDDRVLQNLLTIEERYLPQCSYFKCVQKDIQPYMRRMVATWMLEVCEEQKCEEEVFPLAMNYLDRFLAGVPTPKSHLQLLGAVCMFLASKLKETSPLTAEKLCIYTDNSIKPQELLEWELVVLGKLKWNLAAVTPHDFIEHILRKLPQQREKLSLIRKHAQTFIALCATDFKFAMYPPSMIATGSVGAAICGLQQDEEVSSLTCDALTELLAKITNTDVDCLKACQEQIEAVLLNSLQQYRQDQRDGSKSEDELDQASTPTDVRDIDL
UniProt P36404: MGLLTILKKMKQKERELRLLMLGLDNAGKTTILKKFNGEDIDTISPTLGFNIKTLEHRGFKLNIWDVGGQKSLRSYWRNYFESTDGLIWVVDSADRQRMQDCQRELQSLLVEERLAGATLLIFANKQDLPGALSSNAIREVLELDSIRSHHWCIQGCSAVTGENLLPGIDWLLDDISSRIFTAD
UniProt P41219, whole entry: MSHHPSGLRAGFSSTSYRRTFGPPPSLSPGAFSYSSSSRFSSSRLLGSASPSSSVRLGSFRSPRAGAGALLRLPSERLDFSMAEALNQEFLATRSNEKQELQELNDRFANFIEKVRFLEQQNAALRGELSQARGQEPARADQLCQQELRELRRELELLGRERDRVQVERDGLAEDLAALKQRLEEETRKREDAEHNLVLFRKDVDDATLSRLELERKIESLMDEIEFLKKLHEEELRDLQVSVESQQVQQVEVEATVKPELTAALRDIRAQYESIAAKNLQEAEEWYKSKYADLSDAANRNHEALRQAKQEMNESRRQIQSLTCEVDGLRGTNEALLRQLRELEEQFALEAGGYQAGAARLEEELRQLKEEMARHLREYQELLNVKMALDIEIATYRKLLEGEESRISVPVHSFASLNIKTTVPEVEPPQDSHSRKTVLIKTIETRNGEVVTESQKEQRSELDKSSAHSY
UniProt P33993, whole entry: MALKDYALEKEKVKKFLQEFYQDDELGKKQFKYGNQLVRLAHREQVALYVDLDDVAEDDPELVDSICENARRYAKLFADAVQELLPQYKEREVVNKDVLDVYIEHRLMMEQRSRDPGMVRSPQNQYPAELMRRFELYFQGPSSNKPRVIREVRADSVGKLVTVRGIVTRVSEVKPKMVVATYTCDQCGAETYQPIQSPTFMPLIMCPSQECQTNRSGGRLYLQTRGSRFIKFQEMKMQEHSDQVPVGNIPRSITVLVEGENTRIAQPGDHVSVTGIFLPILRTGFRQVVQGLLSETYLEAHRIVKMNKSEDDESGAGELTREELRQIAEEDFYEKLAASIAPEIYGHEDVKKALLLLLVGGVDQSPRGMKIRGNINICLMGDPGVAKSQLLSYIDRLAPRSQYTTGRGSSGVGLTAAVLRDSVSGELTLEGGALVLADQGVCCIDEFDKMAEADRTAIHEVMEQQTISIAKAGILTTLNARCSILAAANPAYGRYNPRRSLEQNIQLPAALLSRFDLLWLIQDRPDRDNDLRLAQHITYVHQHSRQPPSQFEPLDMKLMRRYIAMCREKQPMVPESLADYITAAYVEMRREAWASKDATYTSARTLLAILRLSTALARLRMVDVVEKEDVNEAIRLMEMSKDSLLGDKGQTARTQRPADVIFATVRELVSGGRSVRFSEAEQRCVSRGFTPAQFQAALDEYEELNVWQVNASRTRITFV
UniProt P30414: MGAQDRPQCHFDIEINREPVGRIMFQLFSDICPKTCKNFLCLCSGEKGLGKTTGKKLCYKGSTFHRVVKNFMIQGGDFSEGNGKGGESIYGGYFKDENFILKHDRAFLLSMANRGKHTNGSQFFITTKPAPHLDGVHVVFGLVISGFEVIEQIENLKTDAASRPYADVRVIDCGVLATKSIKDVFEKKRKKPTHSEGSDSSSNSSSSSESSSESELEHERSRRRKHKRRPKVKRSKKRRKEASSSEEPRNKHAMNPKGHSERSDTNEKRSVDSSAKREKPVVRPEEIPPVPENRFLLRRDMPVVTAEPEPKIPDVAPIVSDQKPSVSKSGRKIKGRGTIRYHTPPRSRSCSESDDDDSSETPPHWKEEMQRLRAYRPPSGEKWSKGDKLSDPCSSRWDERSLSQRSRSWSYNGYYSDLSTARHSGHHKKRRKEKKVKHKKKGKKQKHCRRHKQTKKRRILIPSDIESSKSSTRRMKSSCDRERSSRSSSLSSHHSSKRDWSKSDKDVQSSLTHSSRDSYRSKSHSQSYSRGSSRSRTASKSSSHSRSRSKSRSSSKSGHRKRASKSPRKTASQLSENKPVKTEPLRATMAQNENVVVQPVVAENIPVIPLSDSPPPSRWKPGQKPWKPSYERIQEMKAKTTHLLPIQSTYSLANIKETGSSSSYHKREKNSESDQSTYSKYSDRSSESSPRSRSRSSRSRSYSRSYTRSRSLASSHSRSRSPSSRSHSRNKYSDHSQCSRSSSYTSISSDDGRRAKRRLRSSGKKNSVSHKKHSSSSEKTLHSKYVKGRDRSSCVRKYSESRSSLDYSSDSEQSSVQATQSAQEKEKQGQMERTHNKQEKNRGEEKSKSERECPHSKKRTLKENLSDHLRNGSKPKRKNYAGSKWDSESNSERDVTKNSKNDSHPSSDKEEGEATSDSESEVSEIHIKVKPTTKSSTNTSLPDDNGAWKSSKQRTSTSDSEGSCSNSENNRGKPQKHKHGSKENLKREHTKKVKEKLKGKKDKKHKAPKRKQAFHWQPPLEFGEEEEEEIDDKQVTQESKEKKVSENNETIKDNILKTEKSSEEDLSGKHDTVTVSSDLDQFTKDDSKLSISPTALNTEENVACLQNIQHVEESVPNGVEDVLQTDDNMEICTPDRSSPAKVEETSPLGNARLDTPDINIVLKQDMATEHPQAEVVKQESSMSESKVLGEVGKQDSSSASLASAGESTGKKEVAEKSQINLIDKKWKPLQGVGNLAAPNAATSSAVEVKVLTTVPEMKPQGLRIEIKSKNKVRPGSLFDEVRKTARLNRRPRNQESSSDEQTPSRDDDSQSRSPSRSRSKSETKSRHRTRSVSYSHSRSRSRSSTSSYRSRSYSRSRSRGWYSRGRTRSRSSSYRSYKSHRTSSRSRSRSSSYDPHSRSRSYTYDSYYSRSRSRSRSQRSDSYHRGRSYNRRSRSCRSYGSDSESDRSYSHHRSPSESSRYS
UniProt P33552, whole entry: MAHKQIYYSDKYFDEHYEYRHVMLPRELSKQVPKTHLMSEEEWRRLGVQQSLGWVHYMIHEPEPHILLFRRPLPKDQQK
UniProt P41162: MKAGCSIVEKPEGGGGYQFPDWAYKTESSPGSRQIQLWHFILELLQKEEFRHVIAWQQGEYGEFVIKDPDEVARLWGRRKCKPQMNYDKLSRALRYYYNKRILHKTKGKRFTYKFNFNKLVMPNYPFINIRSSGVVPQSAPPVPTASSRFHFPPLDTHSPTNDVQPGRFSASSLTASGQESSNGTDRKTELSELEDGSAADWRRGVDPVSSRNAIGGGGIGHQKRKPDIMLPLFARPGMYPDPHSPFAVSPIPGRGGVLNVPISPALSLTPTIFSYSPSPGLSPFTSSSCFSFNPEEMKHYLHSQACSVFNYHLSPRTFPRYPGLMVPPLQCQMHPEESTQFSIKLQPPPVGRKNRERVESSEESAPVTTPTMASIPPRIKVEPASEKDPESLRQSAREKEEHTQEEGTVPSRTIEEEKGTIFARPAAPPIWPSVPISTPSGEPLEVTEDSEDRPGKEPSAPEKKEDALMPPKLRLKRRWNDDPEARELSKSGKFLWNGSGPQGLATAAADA
UniProt P32189: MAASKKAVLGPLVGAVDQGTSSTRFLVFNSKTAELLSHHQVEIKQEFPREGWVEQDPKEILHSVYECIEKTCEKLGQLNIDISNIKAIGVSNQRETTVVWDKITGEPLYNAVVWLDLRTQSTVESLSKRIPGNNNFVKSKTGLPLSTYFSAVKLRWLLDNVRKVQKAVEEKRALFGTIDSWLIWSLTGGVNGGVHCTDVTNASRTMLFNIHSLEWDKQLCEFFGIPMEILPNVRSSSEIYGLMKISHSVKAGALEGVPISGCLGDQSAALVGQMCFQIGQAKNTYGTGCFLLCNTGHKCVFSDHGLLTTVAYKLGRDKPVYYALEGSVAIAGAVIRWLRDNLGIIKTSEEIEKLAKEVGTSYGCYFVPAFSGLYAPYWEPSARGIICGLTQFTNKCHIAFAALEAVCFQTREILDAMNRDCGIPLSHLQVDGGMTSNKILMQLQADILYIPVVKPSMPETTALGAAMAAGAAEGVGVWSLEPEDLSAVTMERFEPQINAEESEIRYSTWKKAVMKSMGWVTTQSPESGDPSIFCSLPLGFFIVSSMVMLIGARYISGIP

| Target | log2 fold change |
| --- | --- |
| PHKA1 (peptide sequence: AKELHVQNVHMYLPTK, peptide start residue: 706) (UniProt P46020) | 0.686 |
| TIA1 (peptide sequence: KDTSSSTVVSTQR, peptide start residue: 89) (UniProt P31483) | 0.294 |
| BSG (peptide sequence: RKPEDVLDDDDAGSAPLK, peptide start residue: 349) (UniProt P35613) | -0.269 |
| UniProt P41223 (peptide sequence: IIECTHCGCRGCSG, peptide start residue: 131) | 0.119 |
| GTF2E1 (peptide sequence: MRVETAADGK, peptide start residue: 76) (UniProt P29083) | 0.17 |
| PKLR (peptide sequence: IISKIENHEGVK, peptide start residue: 310) (UniProt P30613) | 0.378 |
| POLR2B (peptide sequence: IFVNGCWVGIHKDPEQLMNTLR, peptide start residue: 567) (UniProt P30876) | -0.287 |
| STAT6 (peptide sequence: AVMEQFR, peptide start residue: 109) (UniProt P42226) | -0.218 |
| DDIT3 (peptide sequence: MKEKEQENER, peptide start residue: 120) (UniProt P35638) | 0.213 |
| ETFB (peptide sequence: EIDGGLETLR, peptide start residue: 165) (UniProt P38117) | -0.0871 |
| CETN2 (peptide sequence: MSPKPELTEEQKQEIR, peptide start residue: 19) (UniProt P41208) | -0.112 |
| CCND2 (peptide sequence: YLPQCSYFK, peptide start residue: 37) (UniProt P30279) | 0.126 |
| IARS (peptide sequence: TGTIVVEGHELHDEDIR, peptide start residue: 930) (UniProt P41252) | -0.153 |
| ARL2 (peptide sequence: LAGATLLIFANK, peptide start residue: 115) (UniProt P36404) | -1.22 |
| PRPH (peptide sequence: ISVPVHSFASLNIK, peptide start residue: 407) (UniProt P41219) | 0.435 |
| CDC25A (peptide sequence: GCLHSHGLQEGK, peptide start residue: 158) (UniProt P30304) | 0.204 |
| MCM7 (peptide sequence: EDVNEAIR, peptide start residue: 628) (UniProt P33993) | -0.282 |
| MAGEA9 (peptide sequence: VAELVHFLLHK, peptide start residue: 112) (UniProt P43362) | -0.4 |
| PPP2R1B (peptide sequence: VKELGENLPIEDR, peptide start residue: 318) (UniProt P30154) | 0.173 |
| NKTR (peptide sequence: GDKLSDPCSSR, peptide start residue: 386) (UniProt P30414) | 0.567 |
| CKS2 (peptide sequence: QIYYSDK, peptide start residue: 5) (UniProt P33552) | 0.118 |
| ETV3 (peptide sequence: IKVEPASEKDPESLR, peptide start residue: 380) (UniProt P41162) | -0.144 |
| KDM5A (peptide sequence: QELQQAR, peptide start residue: 896) (UniProt P29375) | 0.314 |
| GK (peptide sequence: EILDAMNR, peptide start residue: 412) (UniProt P32189) | -0.0893 |
| STAT5A (peptide sequence: FKAEVQSNR, peptide start residue: 515) (UniProt P42229) | -0.192 |
| UniProt P41002 (peptide sequence: LAAAALLLAR, peptide start residue: 452) | 0.14 |

A different layout for part of the listing above.
Target,log2 fold change
"DDIT3 (peptide sequence: MKEKEQENER, peptide start residue: 120) (UniProt P35638)",0.213
"NKTR (peptide sequence: GDKLSDPCSSR, peptide start residue: 386) (UniProt P30414)",0.567

From the supplement of paper PMC12819154, “High-throughput peptide-centric local stability assay extends protein–ligand identification to membrane proteins, tissues and bacteria” (Nature Structural & Molecular Biology, 2025)
